These are yes or no findings as the source states them, for the method shown. Some results given as binding are weak or reduced against the parent protein; the word gives no strength. Where a sequence is shown, tags or fusion partners need not be part of it.

Chains of the proteins cited; added tags and fusions are not shown.
UniProt O95251: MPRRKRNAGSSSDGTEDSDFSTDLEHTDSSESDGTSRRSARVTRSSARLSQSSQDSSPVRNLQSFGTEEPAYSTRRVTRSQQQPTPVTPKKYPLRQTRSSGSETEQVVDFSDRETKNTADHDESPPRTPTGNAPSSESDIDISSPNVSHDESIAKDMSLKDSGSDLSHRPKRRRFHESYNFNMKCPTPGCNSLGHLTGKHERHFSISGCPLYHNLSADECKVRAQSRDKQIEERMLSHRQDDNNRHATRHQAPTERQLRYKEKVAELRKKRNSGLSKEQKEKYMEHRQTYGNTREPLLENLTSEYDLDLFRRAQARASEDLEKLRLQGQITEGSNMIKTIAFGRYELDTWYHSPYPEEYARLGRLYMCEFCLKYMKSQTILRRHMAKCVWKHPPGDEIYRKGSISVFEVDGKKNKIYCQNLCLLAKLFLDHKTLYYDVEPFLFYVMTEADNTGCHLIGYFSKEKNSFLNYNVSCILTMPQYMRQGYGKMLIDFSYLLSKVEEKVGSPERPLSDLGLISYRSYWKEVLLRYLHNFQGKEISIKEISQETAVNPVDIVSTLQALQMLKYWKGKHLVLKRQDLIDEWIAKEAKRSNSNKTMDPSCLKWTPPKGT

Here are results for one molecule from PMC4906249.

The assay has as its target tetR-EYFP-KAT7 (human) (UniProt O95251). The assay can be described thus: fluorescence microscopy-based interaction-trap assay; tetR-EYFP fusion tethered to the ectopic alphoid^tetO DNA integration site in HeLa-Int-03 cells; recruitment of Halo-tag-fused prey seen with Halo-TMR ligand.

B1: Halo-tag fused M18BP1 C-terminal domain (domain or fragment, UniProt Q6P0N0 851-1132)
chain: EFPITEAVGSDKTNRHPLECLPGLIQDKEWNEKELQKLHCAFASLPKHKPGFWSEVAAAVGSRSPEECQRKYMENPRGKGSQKHVTKKKPANSKGQNGKRGDADQKQTIKITAKVGTLKRKQQMREFLEQLPKDDHDDFFSTTPLQHQRILLPSFQDSEDDDDILPNMDKNPTTPSSVIFPLVKTPQCQHVSPGMLGSINRNDCDKYVFRMQKYHKSNGGIVWGNIKKKLVETDFSTPTPRRKTPFNTDLGENSGIGKLFTNAVESLDEEEKDYYFSNSDSA
B1: the binding entry is recorded as “binds”.
